# Source: publication PMC10432564, “Pharmacological perturbation of the phase-separating protein SMNDC1” (Nature Communications, 2023)
# Protein sequences, listed by entry. Tags and fused reporters are not part of them.
# UniProt Q8BTI8: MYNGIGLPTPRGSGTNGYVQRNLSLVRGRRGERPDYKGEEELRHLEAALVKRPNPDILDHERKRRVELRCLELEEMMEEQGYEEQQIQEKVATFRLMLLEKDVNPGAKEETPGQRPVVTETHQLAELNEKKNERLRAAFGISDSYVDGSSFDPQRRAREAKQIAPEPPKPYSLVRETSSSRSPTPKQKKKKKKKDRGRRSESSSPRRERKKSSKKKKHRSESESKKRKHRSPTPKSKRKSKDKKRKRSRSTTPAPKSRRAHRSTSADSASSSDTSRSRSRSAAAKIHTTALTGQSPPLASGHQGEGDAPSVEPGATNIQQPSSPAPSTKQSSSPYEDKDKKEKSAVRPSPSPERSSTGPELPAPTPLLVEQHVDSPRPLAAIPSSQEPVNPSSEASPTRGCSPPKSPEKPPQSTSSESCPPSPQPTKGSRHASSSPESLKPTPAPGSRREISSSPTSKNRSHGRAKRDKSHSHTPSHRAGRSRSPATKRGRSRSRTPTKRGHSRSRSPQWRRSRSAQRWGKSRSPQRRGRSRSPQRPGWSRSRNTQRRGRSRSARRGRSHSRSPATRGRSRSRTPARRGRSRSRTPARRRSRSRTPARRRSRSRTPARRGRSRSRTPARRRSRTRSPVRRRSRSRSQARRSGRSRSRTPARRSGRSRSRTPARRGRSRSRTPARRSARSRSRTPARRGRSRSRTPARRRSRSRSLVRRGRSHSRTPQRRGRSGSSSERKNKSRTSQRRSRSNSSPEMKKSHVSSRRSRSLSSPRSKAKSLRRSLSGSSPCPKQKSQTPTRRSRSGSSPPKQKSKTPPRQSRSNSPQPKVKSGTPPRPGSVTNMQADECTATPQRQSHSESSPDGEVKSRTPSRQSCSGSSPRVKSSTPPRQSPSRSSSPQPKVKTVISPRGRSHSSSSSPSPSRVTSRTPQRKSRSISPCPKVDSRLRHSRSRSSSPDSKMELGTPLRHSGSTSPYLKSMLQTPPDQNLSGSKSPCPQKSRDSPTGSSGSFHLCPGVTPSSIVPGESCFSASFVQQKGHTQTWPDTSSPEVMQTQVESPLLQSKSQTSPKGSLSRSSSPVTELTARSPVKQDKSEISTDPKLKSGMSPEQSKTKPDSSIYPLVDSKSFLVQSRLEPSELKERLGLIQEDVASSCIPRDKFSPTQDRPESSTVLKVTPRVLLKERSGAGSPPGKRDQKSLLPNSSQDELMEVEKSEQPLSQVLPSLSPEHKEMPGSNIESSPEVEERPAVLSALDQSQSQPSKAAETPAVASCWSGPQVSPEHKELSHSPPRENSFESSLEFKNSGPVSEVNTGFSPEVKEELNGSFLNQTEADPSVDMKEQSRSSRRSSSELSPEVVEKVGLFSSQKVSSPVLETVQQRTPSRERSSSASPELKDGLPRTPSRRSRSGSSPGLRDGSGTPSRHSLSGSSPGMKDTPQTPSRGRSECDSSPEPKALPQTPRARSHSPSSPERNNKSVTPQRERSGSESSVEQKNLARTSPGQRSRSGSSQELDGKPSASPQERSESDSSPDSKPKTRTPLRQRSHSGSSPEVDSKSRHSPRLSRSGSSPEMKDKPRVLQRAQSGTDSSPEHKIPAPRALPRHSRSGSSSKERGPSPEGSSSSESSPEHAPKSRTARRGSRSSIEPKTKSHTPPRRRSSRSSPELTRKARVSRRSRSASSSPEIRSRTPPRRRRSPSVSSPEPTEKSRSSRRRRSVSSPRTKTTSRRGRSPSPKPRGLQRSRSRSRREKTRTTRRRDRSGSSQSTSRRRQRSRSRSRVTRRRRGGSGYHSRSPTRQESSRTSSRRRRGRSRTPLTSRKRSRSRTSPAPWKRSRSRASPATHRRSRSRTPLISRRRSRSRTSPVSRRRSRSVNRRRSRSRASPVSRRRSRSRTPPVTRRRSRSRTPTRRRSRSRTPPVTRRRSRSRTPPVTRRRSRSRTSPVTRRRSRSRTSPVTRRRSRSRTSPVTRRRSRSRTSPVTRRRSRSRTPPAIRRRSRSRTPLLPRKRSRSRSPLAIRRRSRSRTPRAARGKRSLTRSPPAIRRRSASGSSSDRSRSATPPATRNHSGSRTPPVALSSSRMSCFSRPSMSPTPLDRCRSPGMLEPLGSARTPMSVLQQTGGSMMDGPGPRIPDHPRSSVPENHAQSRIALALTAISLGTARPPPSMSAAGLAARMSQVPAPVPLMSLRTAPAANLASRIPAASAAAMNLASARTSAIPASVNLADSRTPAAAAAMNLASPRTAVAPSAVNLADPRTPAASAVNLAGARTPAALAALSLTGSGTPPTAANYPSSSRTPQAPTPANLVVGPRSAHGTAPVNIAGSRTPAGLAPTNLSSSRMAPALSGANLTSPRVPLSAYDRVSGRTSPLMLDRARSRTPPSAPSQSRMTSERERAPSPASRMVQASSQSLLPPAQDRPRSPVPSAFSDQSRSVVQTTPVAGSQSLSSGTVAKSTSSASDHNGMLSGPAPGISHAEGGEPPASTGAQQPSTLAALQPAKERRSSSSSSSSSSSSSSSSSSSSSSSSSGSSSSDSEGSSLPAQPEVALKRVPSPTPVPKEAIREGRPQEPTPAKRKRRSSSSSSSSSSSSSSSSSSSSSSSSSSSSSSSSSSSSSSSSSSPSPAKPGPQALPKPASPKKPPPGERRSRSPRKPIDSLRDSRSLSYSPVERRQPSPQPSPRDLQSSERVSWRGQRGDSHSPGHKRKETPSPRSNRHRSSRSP
# UniProt Q9QX47: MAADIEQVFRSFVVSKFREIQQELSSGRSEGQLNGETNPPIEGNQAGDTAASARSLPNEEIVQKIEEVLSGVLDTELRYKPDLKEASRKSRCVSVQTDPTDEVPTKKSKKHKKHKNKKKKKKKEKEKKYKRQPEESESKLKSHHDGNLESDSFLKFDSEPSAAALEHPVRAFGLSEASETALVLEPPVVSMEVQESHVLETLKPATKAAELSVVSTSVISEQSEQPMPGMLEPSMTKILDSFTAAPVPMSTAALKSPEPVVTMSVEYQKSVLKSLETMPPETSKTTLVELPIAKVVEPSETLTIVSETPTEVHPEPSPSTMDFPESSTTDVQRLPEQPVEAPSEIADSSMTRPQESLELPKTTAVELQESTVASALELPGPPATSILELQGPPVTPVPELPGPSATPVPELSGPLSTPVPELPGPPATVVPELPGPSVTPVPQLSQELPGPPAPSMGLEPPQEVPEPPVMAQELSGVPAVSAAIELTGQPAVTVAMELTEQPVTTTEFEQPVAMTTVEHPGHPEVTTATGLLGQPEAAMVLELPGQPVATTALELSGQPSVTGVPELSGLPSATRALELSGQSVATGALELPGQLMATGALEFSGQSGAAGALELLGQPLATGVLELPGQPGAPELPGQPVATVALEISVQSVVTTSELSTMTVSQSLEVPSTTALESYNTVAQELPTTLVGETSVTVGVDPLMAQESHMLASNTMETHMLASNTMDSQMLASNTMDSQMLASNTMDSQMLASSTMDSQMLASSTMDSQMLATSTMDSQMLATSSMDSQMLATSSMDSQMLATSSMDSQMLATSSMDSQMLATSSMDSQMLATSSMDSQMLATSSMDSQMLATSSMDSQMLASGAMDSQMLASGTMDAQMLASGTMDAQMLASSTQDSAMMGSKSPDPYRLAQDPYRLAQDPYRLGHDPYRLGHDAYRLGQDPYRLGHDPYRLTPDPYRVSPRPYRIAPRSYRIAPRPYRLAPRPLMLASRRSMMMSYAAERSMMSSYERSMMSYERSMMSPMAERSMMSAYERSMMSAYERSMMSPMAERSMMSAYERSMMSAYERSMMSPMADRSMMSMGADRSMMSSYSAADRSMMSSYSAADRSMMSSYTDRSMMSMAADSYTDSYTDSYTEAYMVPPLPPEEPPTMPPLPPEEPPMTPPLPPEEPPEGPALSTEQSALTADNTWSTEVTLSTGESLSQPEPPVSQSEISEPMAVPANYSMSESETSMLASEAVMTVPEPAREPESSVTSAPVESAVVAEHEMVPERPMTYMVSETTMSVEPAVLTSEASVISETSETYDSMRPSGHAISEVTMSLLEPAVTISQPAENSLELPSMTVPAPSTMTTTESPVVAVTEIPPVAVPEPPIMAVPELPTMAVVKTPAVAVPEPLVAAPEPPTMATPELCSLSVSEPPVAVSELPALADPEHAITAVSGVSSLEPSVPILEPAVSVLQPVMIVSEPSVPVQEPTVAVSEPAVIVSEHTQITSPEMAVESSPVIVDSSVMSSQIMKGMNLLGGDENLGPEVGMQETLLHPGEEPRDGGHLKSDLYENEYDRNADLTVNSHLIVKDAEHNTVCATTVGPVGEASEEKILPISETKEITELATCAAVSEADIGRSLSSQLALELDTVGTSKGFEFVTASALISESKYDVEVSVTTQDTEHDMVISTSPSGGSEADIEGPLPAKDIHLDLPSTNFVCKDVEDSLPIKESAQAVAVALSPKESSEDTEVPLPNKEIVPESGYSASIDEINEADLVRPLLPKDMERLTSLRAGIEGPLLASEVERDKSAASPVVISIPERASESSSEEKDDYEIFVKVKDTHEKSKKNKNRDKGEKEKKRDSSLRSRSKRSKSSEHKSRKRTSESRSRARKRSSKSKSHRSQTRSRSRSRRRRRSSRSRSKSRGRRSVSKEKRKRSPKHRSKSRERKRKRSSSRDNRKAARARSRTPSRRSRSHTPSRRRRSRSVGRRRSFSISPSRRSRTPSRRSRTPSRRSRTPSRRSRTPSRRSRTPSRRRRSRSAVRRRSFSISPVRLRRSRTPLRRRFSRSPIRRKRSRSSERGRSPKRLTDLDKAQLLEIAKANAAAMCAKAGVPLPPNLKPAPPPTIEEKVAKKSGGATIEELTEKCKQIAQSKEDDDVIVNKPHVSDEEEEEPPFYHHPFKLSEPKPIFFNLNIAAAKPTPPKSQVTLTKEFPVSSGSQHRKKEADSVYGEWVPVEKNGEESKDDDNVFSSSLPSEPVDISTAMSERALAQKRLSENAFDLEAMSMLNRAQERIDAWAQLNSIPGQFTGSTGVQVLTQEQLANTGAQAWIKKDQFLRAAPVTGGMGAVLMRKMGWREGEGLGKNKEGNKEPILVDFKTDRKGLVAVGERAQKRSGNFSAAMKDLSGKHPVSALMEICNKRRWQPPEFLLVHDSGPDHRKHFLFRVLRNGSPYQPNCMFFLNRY
# Results are given in words; binding and its absence hold for the method and conditions named. In cells and extracts the contact can be indirect. These calls come from enrichment with a bait or labelling near it, and not all partners need be listed. For part of these data: No binding means not detected with the bait.
# Assays:
# [1] = target: T1, APEX2-SMNDC1^FL (UniProt O75940); assay: proximity labelling; APEX2 fusion stably expressed in cells; 0.5 mM biotin-phenol 30 min, 1 mM H2O2 1 min; streptavidin enrichment, TMT mass spectrometry; compared with APEX2-SMNDC1^TD; cells treated with DMSO or compound 1
# T1 sequence: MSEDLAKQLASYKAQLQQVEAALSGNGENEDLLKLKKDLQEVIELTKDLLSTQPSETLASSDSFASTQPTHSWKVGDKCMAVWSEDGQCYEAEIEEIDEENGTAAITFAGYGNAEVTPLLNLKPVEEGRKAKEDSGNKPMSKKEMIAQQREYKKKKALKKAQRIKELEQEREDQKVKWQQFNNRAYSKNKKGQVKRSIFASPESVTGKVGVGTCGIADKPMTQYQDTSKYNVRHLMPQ
# [2] = target: T1, APEX2-SMNDC1^FL; assay: as above; remark: listed apart in the source
# [3] = target: T1, APEX2-SMNDC1^FL; assay: condition: only cells treated with the inhibitor (compound 1); proximity labelling; as a3, cells treated with the inhibitor (compound 1); biotin-labeled proteins pulled down on streptavidin beads and detected by western blot
# [4] = target: T1, APEX2-SMNDC1^FL; assay: proximity labelling; APEX2 fusion stably expressed in cells; biotin-labeled proteins pulled down on streptavidin beads and detected by western blot (antibodies against SMNDC1, SFPQ, APEX2); control cells without the inhibitor
Molecule,binding [1],binding [2],binding [3],binding [4]
SRRM2 (from UniProt Q8BTI8 1-2703),binds,,,
SON (from UniProt Q9QX47 1-2444),binds,,,
"endogenous SMNDC1 (protein, UniProt Q8BGT7 1-238) MSEDLAKQLASYKAQLQQVEAALSGNGENEDLLKLKKDLQEVIELTKDLLSTQPSETLASSDSFASTQPTHSWKVGDKCMAVWSEDGQCYEAEIEEIDEENGTAAITFAVYGNAEVTPLLNLKPVEEGRKAKEDSGNKPMSKKEMIAQQREYKKKKALKKAQRIKELEQEREDQKVKWQQFNNRAYSKNKKGQVKRSIFASPESVTGKVGVGTCGIADKPMTQYQDTSKYNVRHLMPQ",,binds,no binding,binds
"splicing factor SFPQ (protein, UniProt Q8VIJ6 1-699, sDMA-modified (sites not given)) MSRDRFRSRGGGGGGFHRRGGGGGRGGLHDFRSPPPGMGLNQNRGPMGPGPGGPKPPLPPPPPHQQQQQPPPQQPPPQQPPPHQQPPPHQPPHQQPPPPPQESKPVVPQGPGSAPGVSSAPPPAVSAPPANPPTTGAPPGPGPTPTPPPAVPSTAPGPPPPSTPSSGVSTTPPQTGGPPPPPAGGAGPGPKPGPGPGGPKGGKMPGGPKPGGGPGMGAPGGHPKPPHRGGGEPRGGRQHHAPYHQQHHQGPPPGGPGPRTEEKISDSEGFKANLSLLRRPGEKTYTQRCRLFVGNLPADITEDEFKRLFAKYGEPGEVFINKGKGFGFIKLESRALAEIAKAELDDTPMRGRQLRVRFATHAAALSVRNLSPYVSNELLEEAFSQFGPIERAVVIVDDRGRSTGKGIVEFASKPAARKAFERCSEGVFLLTTTPRPVIVEPLEQLDDEDGLPEKLAQKNPMYQKERETPPRFAQHGTFEYEYSQRWKSLDEMEKQQREQVEKNMKDAKDKLESEMEDAYHEHQANLLRQDLMRRQEELRRMEELHSQEMQKRKEMQLRQEEERRRREEEMMIRQREMEEQMRRQREESYSRMGYMDPRERDMRMGGGGTMNMGDPYGSGGQKFPPLGGGGGIGYEANPGVPPATMSGSMMGSDMRTERFGQGGAGPVGGQGPRGMGPGTPAGYGRGREEYEGPNKKPRF",,,no binding,binds
"APEX2-SMNDC1^FL (protein, UniProt O75940 1-238) MSEDLAKQLASYKAQLQQVEAALSGNGENEDLLKLKKDLQEVIELTKDLLSTQPSETLASSDSFASTQPTHSWKVGDKCMAVWSEDGQCYEAEIEEIDEENGTAAITFAGYGNAEVTPLLNLKPVEEGRKAKEDSGNKPMSKKEMIAQQREYKKKKALKKAQRIKELEQEREDQKVKWQQFNNRAYSKNKKGQVKRSIFASPESVTGKVGVGTCGIADKPMTQYQDTSKYNVRHLMPQ",,,no binding,binds
